The RNAGym collection of RNA variant scans (doi:10.1126/science.aae0568)
Variants at the floor of the assay are shown more often than the library holds them.

B1: tRNA (parent)
chain: GUUCCGUUGGCGUAAUGGUAACGCGUCUCCCUCCUAAGGAGAAGACUGCGGGUUCGAGUCCCGUACGGAACG

Variants of: B1
Test: yeast fitness relative to wild type (ratio to wild type); higher = fitter; tRNA-Arg(CCU), competitive growth, 37 C, YPD
How it was run: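 Gene amplicons from the start population and from each of six end populations were read by 100-nucleotide paired-end sequencing. Those end populations came from pooled Saccharomyces cerevisiae strains carrying tRNA-Arg(CCU) gene variants at the native locus, competed in YPD at 37°C for 24 hours. Fitness relative to wild type was worked out from changes in genotype frequencies. Genotypes needed ≥ 100 starting reads, and estimates < 0.5 were set to 0.5.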

Yeast fitness, 0.694:
C4A U8A

Yeast fitness, 0.862:
U32C C46U

Yeast fitness, 0.573:
U7C A37C A40C A45U A57C

Yeast fitness, 0.718:
G6C U13A

Yeast fitness, 0.519:
A14C U26A C29U C49U C62G G68C

Yeast fitness, 0.572:
C4A C5U G58C U64A

Yeast fitness, 0.692:
U32G A40C

Yeast fitness, 0.561:
U2C G12A G18C C33U

Yeast fitness, 0.577:
C4U A37C G41C

Yeast fitness, 0.802:
U8C A21U

Yeast fitness, 0.513:
C4A C27A G38A

Yeast fitness, 0.535:
G18C G63A

Yeast fitness, 0.588:
C29U C30U A43U A65U

Yeast fitness, 0.686:
C4A A21G C27U

Yeast fitness, 0.518:
C11G C29A

Yeast fitness, 0.788:
A14U A65G C66G

Yeast fitness, 0.979:
C4U A20G

Yeast fitness, ≤ 0.5:
C5G G23A U26C G50C C66U
U16G G23A C34G
C30A G51C C55A C66U
G10A U47A A70G
G23A G58C C60U C61U C62G
G18C G58C C61U G68A
U8A G44A G67C
C24A U32C G39C A70C
U26C G52C G67C
C29G A45U C46G G48A G56C
C4G C5G C30U C31U A45U A57G A70U
U7C A14G G17A G48C A70U
U32G C33G G50A U53G A69G A70C
C5A U8C A20G G38A A43C G52A A69C
C31A C34A A70G
U7A A20C A40U G44A C61A
C22G G41A A57C
U3A G18C C22U G41C C60G
U3A A14U G41C A70G
A21G G50C G52C
A14C A42U C55U
U2C C27U C33U A40C C55A A65G
U16A G38A C62A A69U
C4U U16A A20C U54A
C5A C11G G23C C29U G56C C61A
U8C U13G C22U U54C C62U G68C
A14G U54C A57U
G6C C33G A36C C49A C60G A70U
G12C A43G G51C U59C C62G
A20G C34U U47G G52A G58C C62A
U28A C34G C62U
C55A A57C G67C G68A
C5A C33G C61G A69C
U16A U59C A65G A69C
C11U A21G C33A A65C A70C
G10A G17A C31G G67C
G10C C22A A65C
C4G C24U U59C
A20U A21U C62A
U7A A37U G50A U53C C62A A69U
C11G G12C A20G A43G A45C C66U A69U
G10C C34G C55U
A42C C55G G68C
C24G G58C G68A
C24G C30A C34U G39A G44A G58C A65C
C11A C55G A69C
G6C U16G U35A G51C G68A
A21G C24U A42U G52A
A45C G51C U64C A69U
C24A G39C A70G
A20G C31U A42U C46U A65C
A37G G39C C55G
C31U C34A U47A
U2G C11G A20U C24G G51A C60G G68C
C5G G25C A43C C62U
C4U G12C A37U C49G
A15U U19A G23C
C24U U32A U35C C55U G68C
G17C C24G U28A C30U U54C A57C
G10A C31G C46G A57C
C4A G17A G41A U47C G50C
C22G C33G G51A C55G
C22G C34G C61G A69G
C4G A15U C33A G68C
A43U C49G C61U
C31A A45C G63C
C11A C31A C46U A57C C66A
C4A A15G C33G C60A
C4G C5U C27G C34A A65C
G9C C24A C34U C55U
G17C C24G U28A C30U A42G A65U A69C
G17C C22U A42U C60A
A21C C24G C62G
C31U G38C G51C C55U
A37U A65G C66A
C22G G23U C62U G68A
G39A U53G U64A
G12C C29G C31A C60G
A20C G38A G41A
U2C C11U U32A A37C C55G
C4U U8A C11U C22U A57U
U3C C11A C27G C33A A43C C46A U64C
G9A C27G C60G C62A
G9C U19C C31A C60G A65U
A15G C60G C62U
A40G A57U A65U
G9C G17A A37G G68A
G10A G39C C66U
G50C U53A A57U A65U A70U
U3G C27G U35C G68U
A21U U32C A43U U59A
A20U U32G U54A
C11A A40G A65U
A42G C61A G63C
U8C C24G C30G G39A
C5A G17C G18C C30G U59G C66A
C33G G41C A43C
C4U G12A C33U A65U
C5G C29G A37U A65G
G23C C33G A57G
A14G A21C C30G G63A
A21C C22A C60U
C4A C11U C29G A40U
G17A A21G U26C C66A
G25C C29U A70U
C11A G23C G39C C61A C62G A65U
C11U A42G C60U A69G A70U
U35A A37G A43U A45C
U8A C30G G56C A57G A69C
G10A A21C A37G G52A C62A
C11U C22U G44C G52A C66G G68C
U8C G9A A42G G56A
U3G C11A C24A C49U
G44U C46G A65G
C5A U16C G51A
A42U C55A G67A
U3C A15C C60G
A20U C30U C34G U53C A57U
U16A C55A A65U
U32A U35G G67A
G10A C34U G44A
C5U C33A C60U
G10A C11U C30U
A21G C62U G63C A70C
G12A C33U C46G
C30G C46G G52C
C4G G9A G12C C29A G50C
U2C U3C G12A C34U
U2G C5U A21C C60G
A37C C49U G52A U53A
A20G G58U A65G G67A
U13C C29G A40C A42C A70U
C11G A15U C34G C62G
C4U U35G A65U
G52A A57G C60U
A21U U32G G48C C49U C62G G68C
C4G G10A U13A U26G C27G C29U C33U C55U C61G

Yeast fitness, 0.578:
U2A C27U A36G

Yeast fitness, 0.53:
G17A C33A

Yeast fitness, 0.567:
U3A A14C

Yeast fitness, 1.04:
A45G A65G

Yeast fitness, 0.633:
U16C G51A

Yeast fitness, 0.715:
C4U C30A G50U

Yeast fitness, 0.605:
U2C G6A G23A C27U A45C C60A

Yeast fitness, 0.562:
G9C U16C A69C

Yeast fitness, 0.899:
U3A A65G

Yeast fitness, 0.726:
A14G A69U A70C

Yeast fitness, 0.559:
C4G C24U U35C C66U

Yeast fitness, 0.669:
U59A C66G

Yeast fitness, 1:
U16G A45G
